Experimental data published in PMC5906670, “Structural basis of epilepsy-related ligand–receptor complex LGI1–ADAM22” (Nature Communications, 2018).

Protein sequences, listed by entry. Tags and fused reporters are not part of them. Lines headed by an entry give the natural chain unless they say otherwise; changes in a name come on top.
UniProt O75077: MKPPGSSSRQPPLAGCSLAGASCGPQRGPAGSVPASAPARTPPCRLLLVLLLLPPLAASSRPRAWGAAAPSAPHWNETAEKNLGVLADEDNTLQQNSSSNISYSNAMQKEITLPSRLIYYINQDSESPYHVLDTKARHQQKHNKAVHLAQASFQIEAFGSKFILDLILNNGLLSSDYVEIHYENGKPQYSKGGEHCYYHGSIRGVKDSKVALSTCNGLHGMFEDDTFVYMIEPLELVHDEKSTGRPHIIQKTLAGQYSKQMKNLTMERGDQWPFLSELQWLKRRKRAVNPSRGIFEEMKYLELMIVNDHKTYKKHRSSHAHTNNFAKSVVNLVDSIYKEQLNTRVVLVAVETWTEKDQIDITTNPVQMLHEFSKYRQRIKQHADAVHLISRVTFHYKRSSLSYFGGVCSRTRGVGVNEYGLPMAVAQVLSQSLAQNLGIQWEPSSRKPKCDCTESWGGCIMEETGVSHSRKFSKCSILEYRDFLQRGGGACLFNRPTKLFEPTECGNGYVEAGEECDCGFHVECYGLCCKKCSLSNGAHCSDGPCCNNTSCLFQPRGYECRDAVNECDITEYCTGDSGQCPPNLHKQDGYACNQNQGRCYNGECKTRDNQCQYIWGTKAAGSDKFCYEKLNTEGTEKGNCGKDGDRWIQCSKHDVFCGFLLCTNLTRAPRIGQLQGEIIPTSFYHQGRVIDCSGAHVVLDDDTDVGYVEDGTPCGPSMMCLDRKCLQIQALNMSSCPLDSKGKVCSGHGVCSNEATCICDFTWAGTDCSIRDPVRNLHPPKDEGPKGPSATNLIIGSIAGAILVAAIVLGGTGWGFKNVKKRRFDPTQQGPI

B1: LGI1 (wild type, pull-down with ADAM22/23 ECD-FLAG) (ligand, UniProt O95970-1 35-557)
chain: KKPAKPKCPAVCTCTKDNALCENARSIPRTVPPDVISLSFVRSGFTEISEGSFLFTPSLQLLLFTSNSFDVISDDAFIGLPHLEYLFIENNNIKSISRHTFRGLKSLIHLSLANNNLQTLPKDIFKGLDSLTNVDLRGNSFNCDCKLKWLVEWLGHTNATVEDIYCEGPPEYKKRKINSLSSKDFDCIITEFAKSQDLPYQSLSIDTFSYLNDEYVVIAQPFTGKCIFLEWDHVEKTFRNYDNITGTSTVVCKPIVIETQLYVIVAQLFGGSHIYKRDSFANKFIKIQDIEILKIRKPNDIETFKIENNWYFVVADSSKAGFTTIYKWNGNGFYSHQSLHAWYRDTDVEYLEIVRTPQTLRTPHLILSSSSQRPVIYQWNKATQLFTNQTDIPNMEDVYAVKHFSVKGDVYICLTRFIGDSKVMKWGGSSFQDIQRMPSRGSMVFQPLQINNYQYAILGSDYSFTQVYNWDAEKAKFVKFQELNVQAPRSFTHVSINKRNFLFASSFKGNTQIYKHVIVDLSA
B2: LGI1 Y433A (ligand, UniProt O95970-1 35-557)
chain: B1 chain with Y399A
B3: LGI1 M477A (ligand, UniProt O95970-1 35-557)
chain: B1 chain with M443A
B4: LGI1 R330A (ligand, UniProt O95970-1 35-557)
chain: B1 chain with R296A
B5: LGI1 K331A (ligand, UniProt O95970-1 35-557)
chain: B1 chain with K297A
B6: LGI1 R330A K331A (ligand, UniProt O95970-1 35-557)
chain: B1 chain with R296A, K297A
B7: LGI1 R407C (pull-down in vitro) (ligand, UniProt O95970-1 35-557)
chain: B1 chain with R373C
B8: full-length LGI1 (residues 37–557), C-terminal His6 (ligand, human, UniProt O95970-1 37-557, looked up)
chain: PAKPKCPAVCTCTKDNALCENARSIPRTVPPDVISLSFVRSGFTEISEGSFLFTPSLQLLLFTSNSFDVISDDAFIGLPHLEYLFIENNNIKSISRHTFRGLKSLIHLSLANNNLQTLPKDIFKGLDSLTNVDLRGNSFNCDCKLKWLVEWLGHTNATVEDIYCEGPPEYKKRKINSLSSKDFDCIITEFAKSQDLPYQSLSIDTFSYLNDEYVVIAQPFTGKCIFLEWDHVEKTFRNYDNITGTSTVVCKPIVIETQLYVIVAQLFGGSHIYKRDSFANKFIKIQDIEILKIRKPNDIETFKIENNWYFVVADSSKAGFTTIYKWNGNGFYSHQSLHAWYRDTDVEYLEIVRTPQTLRTPHLILSSSSQRPVIYQWNKATQLFTNQTDIPNMEDVYAVKHFSVKGDVYICLTRFIGDSKVMKWGGSSFQDIQRMPSRGSMVFQPLQINNYQYAILGSDYSFTQVYNWDAEKAKFVKFQELNVQAPRSFTHVSINKRNFLFASSFKGNTQIYKHVIVDLSA
notes: LGI1, human, cDNA NM_005097; 'full length, residues 37–557' (without the signal peptide); PDB 5Y31 holds the R470A mutant of the same limits; also called LGI1^WT; source: Expi293F, transient, co-expressed with non-tagged ADAM22 ECD; purified from culture medium (Ni-NTA, SEC)
B9: LGI1^R474Q (residues 37–557), C-terminal His6 (ligand, human, UniProt O95970-1 37-557, looked up)
chain: B8 chain with R438Q
notes: LGI1, human, cDNA NM_005097, residues 37-557; R474Q is a human ADLTE mutation; source: Expi293F, transient, co-expressed with ADAM22 ECD; purified as the complex (Ni-NTA, SEC)
B10: LGI1 R470A (pull-down) (ligand, UniProt O95970-1 35-557)
chain: B1 chain with R436A

Molecular target: ADAM23 ECD-FLAG (human) (UniProt O75077)
Assay: pull-down; culture media of HEK293T cells with LGI1 (wild type or mutant) and ADAM22 ECD-FLAG or ADAM23 ECD-FLAG mixed for 1 h at 4 °C; pulled down with anti-FLAG M2 agarose; Western blot with anti-FLAG and anti-LGI1

Row | Binder | binding
1 | B1 | binds
2 | B2 | binds weakly
3 | B3 | binds weakly
4 | B4 | binds
5 | B5 | binds
6 | B6 | binds weakly
7 | B7 | binds
8 | B8 | binds
9 | B9 | binds
10 | B10 | binds

Where a chain is given by its changes, count along the chain named. Names may count otherwise. Results are given in words; binding and its absence hold for the method and conditions named. In cells and extracts the contact can be indirect. Binding calls can cover weak binding; strength is not graded here. Tags and fused reporters may be left off the sequences shown.
